Among the data in article PMC11061198, “Polyphosphate and tyrosine phosphorylation in the N-terminal domain of the human mitochondrial Lon protease disrupts its functions” (Scientific Reports, 2024) are binding values, retold here.

Amino acid sequences for entries named in this document (tags omitted). Residues count along the entry.
UniProt P36776, residues 68-959: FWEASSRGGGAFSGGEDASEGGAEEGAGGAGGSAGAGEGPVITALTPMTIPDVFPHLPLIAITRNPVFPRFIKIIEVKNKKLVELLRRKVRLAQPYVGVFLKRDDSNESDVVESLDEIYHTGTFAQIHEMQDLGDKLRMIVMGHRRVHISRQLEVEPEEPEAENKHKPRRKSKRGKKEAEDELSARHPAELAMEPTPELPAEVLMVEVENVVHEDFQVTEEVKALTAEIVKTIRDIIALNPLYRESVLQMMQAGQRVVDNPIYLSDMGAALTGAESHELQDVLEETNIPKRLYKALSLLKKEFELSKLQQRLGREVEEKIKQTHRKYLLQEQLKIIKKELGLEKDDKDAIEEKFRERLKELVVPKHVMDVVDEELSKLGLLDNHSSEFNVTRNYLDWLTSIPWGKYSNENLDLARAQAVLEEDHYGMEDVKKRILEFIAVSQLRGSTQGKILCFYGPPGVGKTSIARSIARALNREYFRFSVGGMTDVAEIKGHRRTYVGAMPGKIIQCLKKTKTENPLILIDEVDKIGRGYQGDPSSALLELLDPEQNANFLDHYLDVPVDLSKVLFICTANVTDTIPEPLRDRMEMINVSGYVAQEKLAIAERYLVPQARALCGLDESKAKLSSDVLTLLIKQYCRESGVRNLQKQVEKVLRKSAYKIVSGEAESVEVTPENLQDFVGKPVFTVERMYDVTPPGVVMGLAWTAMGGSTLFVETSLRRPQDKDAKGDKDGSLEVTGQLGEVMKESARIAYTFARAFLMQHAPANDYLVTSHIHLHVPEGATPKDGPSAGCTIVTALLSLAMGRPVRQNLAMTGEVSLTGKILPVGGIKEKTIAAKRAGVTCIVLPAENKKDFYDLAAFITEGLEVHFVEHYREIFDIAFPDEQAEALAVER

Results are given in words; binding and its absence hold for the method and conditions named. Some binding calls cover weakened binding; strength is not graded here. Sequences can lack the tags named with a protein.

This experiment has as its target T1, Abf2, Saccharomyces cerevisiae TFAM homologue (Saccharomyces cerevisiae) (UniProt Q02486).
T1 sequence: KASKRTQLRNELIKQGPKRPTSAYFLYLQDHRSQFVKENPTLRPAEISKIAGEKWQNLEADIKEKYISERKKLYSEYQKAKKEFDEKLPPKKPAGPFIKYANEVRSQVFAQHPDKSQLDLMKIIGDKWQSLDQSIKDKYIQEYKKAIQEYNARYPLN
Kind of experiment: cross-linking; hLon and Abf2 in a 1:1.6 mass ratio, 0.1% (v/v) glutaraldehyde, 40 min, room temperature, 2 mM ATP, 10 mM MgCl2; 5% SDS-PAGE, immunoblot with anti-Abf2 antibody; both purified.

For “wild-type human mitochondrial Lon protease lacking the N-terminal MTS, hexahistidine-tagged (from UniProt P36776 68-959) (enzyme)”, the binding entry is “binds”.
